According to the supplement of paper PMC10331698:
± gives the standard deviation of the averaged measurements. Most values lie at the level of the controls, where differences are scatter.

Legend:
Assay in all cases: level (log10 ratio to DMSO vehicle control); higher = higher biomarker level / cell amount than vehicle control
[1] = compound: C=CC(=O)OCC(F)(F)C(F)(F)C(F)(F)COC(=O)C=C [1H,1H,5H,5H-Perfluoro-1,5-pentanediol diacrylate]; details: 2200 nM; in DMSO
Experimental: (§1)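 BioMAP Diversity Plus panel of 12 human primary cell co-culture systems (3C, 4H, LPS, SAg, BT, BF4T, BE3C, CASM3C, HDF3CGF, KF3CT, MyoF, Mphg). Compounds were added 1 h before stimulation and left for 24 h (MyoF 48 h; BT 72 h for soluble read-outs or 6 d for IgG). Biomarkers were read by ELISA, cytotoxicity by SRB, PBMC viability and proliferation by Alamar Blue. Each well value was divided by the mean of 8 DMSO control wells on the same plate and log10 transformed; duplicate blinded samples were tested at 4 concentrations.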

[2] = compound: C=CC(=O)OCCC(F)(F)C(F)(F)C(F)(F)C(F)(F)C(F)(F)C(F)(F)C(F)(F)C(F)(F)F [8:2 Fluorotelomer acrylate]; details: 2200 nM; in DMSO
Experimental: as §1

[3] = compound: C=CC(=O)OCCC(F)(F)C(F)(F)C(F)(F)C(F)(F)F [2-(Perfluorobutyl)ethyl acrylate]; details: 2200 nM; in DMSO
Experimental: as §1

[4] = compound: FC(F)(F)C(F)(C(F)(F)F)C(F)(F)C(F)(F)CC1CO1 [3-(Perfluoro-3-methylbutyl)-1,2-propenoxide]; details: in DMSO
Experimental: as §1

Perfluoro-1-iodohexane = compound: FC(F)(F)C(F)(F)C(F)(F)C(F)(F)C(F)(F)C(F)(F)I [Perfluoro-1-iodohexane]; details: in DMSO
Experimental: as §1

[5] = compound: FC(F)(I)C(F)(F)C(F)(F)C(F)(F)C(F)(F)C(F)(F)I [1,6-Diiodoperfluorohexane]; details: 2200 nM; in DMSO
Experimental: as §1

[6] = compound: O=C(Cl)C(F)(F)C(F)(F)C(F)(F)C(=O)Cl [Hexafluoroglutaryl chloride]; details: 2200 nM; in DMSO
Experimental: as §1

[7] = compound: O=C(O)C(F)(F)C(F)(F)C(F)(F)C(F)(F)C(F)(F)C(F)(F)C(F)(F)C(F)(F)C(F)(F)C(F)(F)C(F)(F)C(F)(F)C(F)(F)F [Perfluorotetradecanoic acid]; details: in DMSO
Experimental: as §1

[8] = compound: O=C(O)C=C(C(F)(F)F)C(F)(F)F [3,3-Bis(trifluoromethyl)-2-propenoic acid]; details: in DMSO
Experimental: as §1

[9] = compound: O=S(=O)(O)C(F)(F)C(F)(F)C(F)(F)C(F)(F)C(F)(F)C(F)(F)F [Perfluorohexanesulfonic acid]; details: 2200 nM; in DMSO
Experimental: as §1

[10] = compound: O=S(=O)(O)CCC(F)(F)C(F)(F)C(F)(F)C(F)(F)F [4:2 Fluorotelomer sulfonic acid]; details: 2200 nM; in DMSO
Experimental: as §1

Hexafluoroamylene glycol = compound: OCC(F)(F)C(F)(F)C(F)(F)CO [Hexafluoroamylene glycol]; details: 2200 nM; in DMSO
Experimental: as §1

[11] = compound: OCCCC(F)(F)C(F)(F)C(F)(F)C(F)(F)C(F)(F)C(F)(F)C(F)(F)F [7:3 Fluorotelomer alcohol]; details: 2200 nM; in DMSO
Experimental: as §1

Test System | level (log10) [1] | level (log10) [2] | level (log10) [3] | level (log10) ([4]; 740 nM) | level (log10) ([4]; 2200 nM) | level (log10) (Perfluoro-1-iodohexane; 2200 nM) | level (log10) (Perfluoro-1-iodohexane; 6700 nM) | level (log10) (Perfluoro-1-iodohexane; 20000 nM) | level (log10) (Perfluoro-1-iodohexane; 60000 nM) | level (log10) [5] | level (log10) [6] | level (log10) ([7]; 740 nM) | level (log10) ([7]; 2200 nM) | level (log10) ([8]; 2200 nM) | level (log10) ([8]; 6700 nM) | level (log10) ([8]; 20000 nM) | level (log10) ([8]; 60000 nM) | level (log10) [9] | level (log10) [10] | level (log10) (Hexafluoroamylene glycol) | level (log10) [11]
CASM3C:Proliferation | -0.127 ± 0.065 | 0.0035 ± 0.0092 | 0.009 ± 0.059 | -0.0215 ± 0.05 | 0.022 ± 0.0028 | -0.0115 ± 0.0078 | 0.023 ± 0.0071 | -0.02 ± 0.013 | -0.021 ± 0.067 | -0.0005 ± 0.018 | -0.0085 ± 0.013 | 0.017 ± 0.014 | -0.014 ± 0.054 | -0.002 ± 0.027 | -0.0475 ± 0.0035 | -0.0555 ± 0.015 | -0.177 ± 0.06 | 0.006 ± 0.018 | 0.018 | 0.0025 ± 0.042 | 0.016 ± 0.025
CASM3C:Serum Amyloid A | 0.007 ± 0.028 | 0.0035 ± 0.015 | 0.0165 ± 0.057 | 0.018 ± 0.054 | -0.0375 ± 0.016 | 0.0045 ± 0.0092 | 0.0035 ± 0.042 | 0.008 ± 0.035 | 0.007 ± 0.025 | -0.0035 ± 0.029 | -0.0045 ± 0.047 | 0.0325 ± 0.018 | 0.0125 ± 0.067 | -0.0005 ± 0.00071 | -0.013 ± 0.021 | -0.0185 ± 0.0092 | -0.005 ± 0.038 | -0.008 ± 0.092 | -0.0095 ± 0.022 | 0.0095 ± 0.021 | -0.0125 ± 0.015
4H:SRB | 0.012 ± 0.013 | -0.0055 ± 0.0078 | 0.0135 ± 0.029 | 0.016 ± 0.018 | 0.0105 ± 0.028 | 0.0015 ± 0.016 | -0.0065 ± 0.011 | -0.008 ± 0.0042 | -0.0105 ± 0.0035 | 0.012 ± 0.011 | 0.0025 ± 0.0078 | -0.003 ± 0.017 | -0.0325 ± 0.00071 | 0.0035 ± 0.0092 | -0.008 ± 0.0042 | -0.026 ± 0.027 | -0.0615 ± 0.015 | -0.012 ± 0.014 | -0.0005 ± 0.0064 | -0.009 ± 0.018 | -0.001 ± 0.021
HDF3CGF:PAI-I | -0.0255 ± 0.037 | -0.009 ± 0.037 | 0.0005 ± 0.036 | 0.018 ± 0.027 | -0.005 ± 0.0057 | -0.016 ± 0.065 | 0.017 ± 0.011 | 0.005 ± 0.031 | -0.041 ± 0.014 | -0.0145 ± 0.056 | -0.0385 ± 0.086 | 0.0485 ± 0.0021 | 0.0395 ± 0.015 | -0.008 ± 0.0099 | -0.0265 ± 0.015 | -0.069 ± 0.0099 | -0.153 ± 0.025 | 0.004 ± 0.058 | 0.0225 ± 0.061 | 0.0025 ± 0.052 | -0.048 ± 0.023
CASM3C:CD106/VCAM-1 | -0.023 ± 0.03 | -0.0335 ± 0.018 | -0.028 ± 0.0099 | -0.025 ± 0.017 | -0.016 ± 0.0057 | 0.011 ± 0.0071 | 0.003 ± 0.017 | -0.003 ± 0.025 | -0.023 ± 0.041 | -0.0265 ± 0.06 | -0.0245 ± 0.016 | 0.011 ± 0.025 | -0.0335 ± 0.028 | -0.0745 ± 0.026 | -0.152 ± 0.012 | -0.216 ± 0.021 | -0.284 ± 0.054 | -0.02 ± 0.031 | 0.007 ± 0.016 | 0.003 ± 0.0014 | 0.008 ± 0.027
BF4T:tPA | 0.013 ± 0.04 | -0.0245 ± 0.066 | 0.0065 ± 0.03 | 0.0115 ± 0.021 | 0.0105 ± 0.016 | -0.0045 ± 0.026 | 0.0015 ± 0.005 | -0.0065 ± 0.018 | 0.036 ± 0.047 | 0.01 ± 0.027 | 0.0055 ± 0.023 | 0.0395 ± 0.022 | 0.0035 ± 0.005 | -0.06 ± 0.035 | -0.0965 ± 0.035 | -0.12 ± 0.026 | -0.11 ± 0.029 | 0.014 ± 0.041 | 0.0015 ± 0.035 | -0.002 ± 0.054 | 0.005 ± 0.011
HDF3CGF:CCL2/MCP-1 | -0.245 ± 0.0085 | -0.0295 ± 0.053 | -0.0195 ± 0.018 | -0.0155 ± 0.04 | -0.0365 ± 0.033 | -0.023 ± 0.031 | -0.0125 ± 0.013 | -0.02 ± 0.0099 | -0.065 ± 0.034 | -0.005 ± 0.0071 | -0.024 ± 0.037 | 0.0295 ± 0.0078 | 0.018 ± 0.0042 | -0.0565 ± 0.0064 | -0.0775 ± 0.052 | -0.0935 ± 0.056 | -0.084 ± 0.028 | 0.0215 ± 0.016 | -0.003 ± 0.0071 | 0.0205 ± 0.028 | -0.0065 ± 0.019
lMphg:CD106/VCAM-1 | -0.0085 ± 0.019 | -0.002 ± 0.0099 | -0.0135 ± 0.013 | -0.0135 ± 0.032 | 0.0025 ± 0.016 | 0.0125 ± 0.0078 | 0.0085 ± 0.032 | -0.0035 ± 0.018 | -0.003 ± 0.0099 | -0.0175 ± 0.025 | -0.0045 ± 0.0021 | -0.0075 ± 0.016 | -0.0275 ± 0.029 | -0.014 ± 0.0099 | -0.0205 ± 0.005 | -0.025 ± 0.0099 | -0.0935 ± 0.0064 | -0.012 ± 0.02 | -0.002 ± 0.011 | -0.0095 ± 0.0021 | -0.0135 ± 0.033
3C:Proliferation | -0.155 ± 0.05 | -0.047 ± 0.011 | -0.0245 ± 0.047 | -0.039 ± 0.052 | 0.0095 ± 0.032 | -0.036 ± 0.059 | -0.0215 ± 0.0064 | -0.0205 ± 0.013 | -0.041 ± 0.041 | -0.011 ± 0.0099 | -0.0045 ± 0.0035 | -0.1 ± 0.079 | -0.222 ± 0.16 | -0.018 ± 0.05 | -0.0425 ± 0.0021 | -0.089 ± 0.02 | -0.189 ± 0.1 | 0.02 ± 0.055 | -0.0005 ± 0.044 | -0.0375 ± 0.05 | -0.0075 ± 0.026
LPS:SRB | -0.005 ± 0.016 | -0.006 | 0.0025 ± 0.018 | 0.0065 ± 0.016 | 0.0075 ± 0.018 | -0.0045 ± 0.0035 | -0.0025 ± 0.0064 | -0.0055 ± 0.0064 | -0.0085 ± 0.00071 | 0.008 ± 0.017 | -0.0005 ± 0.0035 | -0.001 ± 0.0042 | -0.019 | 0.008 ± 0.014 | -0.006 ± 0.0071 | -0.024 ± 0.0085 | -0.044 ± 0.0057 | 0.004 ± 0.0085 | -0.001 ± 0.0057 | -0.0065 ± 0.013 | -0.002 ± 0.0071
3C:CD141/Thrombomodulin | -0.0405 ± 0.077 | 0.015 ± 0.0014 | 0.0005 ± 0.015 | 0.018 ± 0.011 | 0.002 ± 0.0028 | -0.012 ± 0.0042 | -0.025 ± 0.013 | -0.023 ± 0.014 | -0.0015 ± 0.005 | -0.0215 ± 0.00071 | -0.0325 ± 0.00071 | 0.0125 ± 0.025 | -0.013 ± 0.021 | 0.0325 ± 0.023 | 0.023 ± 0.0057 | 0.0025 ± 0.00071 | 0.0215 ± 0.037 | -0.005 ± 0.0099 | 0.018 ± 0.028 | -0.0095 ± 0.029 | -0.0195 ± 0.0092
HDF3CGF:SRB | -0.095 ± 0.05 | -0.0015 ± 0.025 | 0.0005 ± 0.021 | -0.03 ± 0.011 | -0.024 ± 0.024 | 0.0395 ± 0.032 | 0.021 ± 0.035 | 0.0085 ± 0.018 | -0.0085 ± 0.067 | 0.027 ± 0.068 | -0.0105 ± 0.03 | -0.018 ± 0.031 | -0.004 ± 0.0071 | -0.004 ± 0.045 | -0.014 ± 0.028 | 0.0125 ± 0.021 | -0.022 ± 0.02 | 0.0195 ± 0.00071 | -0.0235 ± 0.037 | -0.038 ± 0.027 | 0.003 ± 0.017

Shown as tab-separated lines: part of the list above.
Test System	level (log10) [1]	level (log10) [2]	level (log10) [3]	level (log10) ([4]; 740 nM)	level (log10) ([4]; 2200 nM)	level (log10) (Perfluoro-1-iodohexane; 2200 nM)	level (log10) (Perfluoro-1-iodohexane; 6700 nM)	level (log10) (Perfluoro-1-iodohexane; 20000 nM)	level (log10) (Perfluoro-1-iodohexane; 60000 nM)	level (log10) [5]	level (log10) [6]	level (log10) ([7]; 740 nM)	level (log10) ([7]; 2200 nM)	level (log10) ([8]; 2200 nM)	level (log10) ([8]; 6700 nM)	level (log10) ([8]; 20000 nM)	level (log10) ([8]; 60000 nM)	level (log10) [9]	level (log10) [10]	level (log10) (Hexafluoroamylene glycol)	level (log10) [11]
4H:SRB	0.012 ± 0.013	-0.0055 ± 0.0078	0.0135 ± 0.029	0.016 ± 0.018	0.0105 ± 0.028	0.0015 ± 0.016	-0.0065 ± 0.011	-0.008 ± 0.0042	-0.0105 ± 0.0035	0.012 ± 0.011	0.0025 ± 0.0078	-0.003 ± 0.017	-0.0325 ± 0.00071	0.0035 ± 0.0092	-0.008 ± 0.0042	-0.026 ± 0.027	-0.0615 ± 0.015	-0.012 ± 0.014	-0.0005 ± 0.0064	-0.009 ± 0.018	-0.001 ± 0.021
HDF3CGF:CCL2/MCP-1	-0.245 ± 0.0085	-0.0295 ± 0.053	-0.0195 ± 0.018	-0.0155 ± 0.04	-0.0365 ± 0.033	-0.023 ± 0.031	-0.0125 ± 0.013	-0.02 ± 0.0099	-0.065 ± 0.034	-0.005 ± 0.0071	-0.024 ± 0.037	0.0295 ± 0.0078	0.018 ± 0.0042	-0.0565 ± 0.0064	-0.0775 ± 0.052	-0.0935 ± 0.056	-0.084 ± 0.028	0.0215 ± 0.016	-0.003 ± 0.0071	0.0205 ± 0.028	-0.0065 ± 0.019
